Measurements as given in PubChem BioAssay AID720641 (ICCB-Longwood Screening Facility, Harvard Medical School, 2013).
The list shows a part of the results.

Assay: Staphylococcus aureus RN4220 growth blockers – two temperatures, LtaS inhibitor project, primary screen (AID 720641)
Conditions: S. aureus RN4220 growth, OD600, 20 h, 42 °C; measured here: growth at 30 °C; stronger effect = lower value

| SMILES | relative growth [%] |
| --- | --- |
| COc1ccccc1OP(C)(=O)Nc1ccccc1 (centres undefined) | 98.9 |
| CCN1C(=O)N(c2ccccc2)P(=S)(OC)c2cc3c(cc21)OCCO3 (centres undefined) | 95.1 |
| CP(=O)(Nc1ccc(Cl)cc1)Oc1ccccc1 (centres undefined) | 94.9 |
| O=C(O)CCC(=O)N=S(c1ccccc1)c1ccccc1.O=[N+]([O-])c1cc([N+](=O)[O-])c(O)c([N+](=O)[O-])c1 | 100 |
| CCn1cccc/c1=N\P1(=S)OCCO1 | 98.1 |
| Cc1cccc(NP(C)(=O)Oc2ccccc2)c1 (centres undefined) | 92.1 |
| CCOC(=O)c1ccc(NP(C)(=O)Oc2ccc(OC)cc2)cc1 (centres undefined) | 93.1 |
| CP(=O)(NC(=O)Nc1ccccc1)Oc1ccccc1 (centres undefined) | 92.8 |
| COP1(=S)c2c(C)nn(-c3ccccc3)c2N=C(c2ccccc2)N1C1CC1 (centres undefined) | 84.9 |
| O=P1(Nc2nccs2)CC=CC1 | 85.7 |
| CN(C)P1(=O)Nc2ccccc2S1 (centres undefined) | -0.11 |
| O=C(OC1CN2CCC1CC2)C12CC3CC(CC(C3)C1)C2 (centres undefined) | 90.3 |
| COP1(=S)N=C2c3ccccc3CN2c2cc(N(C)C)ccc21 (centres undefined) | 90.2 |
| Cc1cc(C)cc(OP(C)(=O)NCc2ccccc2)c1 (centres undefined) | 103 |
| Nc1nonc1OCCOc1nonc1N | 105 |
| CC1=Nc2ccc(C(F)(F)F)cc2C1(C)C | 89.5 |
| O=C(O)C1(O)c2ccccc2-c2ccccc21 | 95.6 |
| CCOP1(=S)c2c(C)nn(CCC#N)c2N=C(c2ccc(F)cc2)N1C (centres undefined) | 89.1 |
| O=P1(Nc2nc3ccc(Cl)cc3s2)COc2ccccc2OC1 | 57.8 |
| NC(=O)COC(=O)C1(O)c2ccccc2-c2ccccc21 | 84.8 |
| Cc1cccc(OCC(=O)OC2CN3CCC2CC3)c1 (centres undefined) | 91.9 |
| COc1cc(-n2cnnn2)ccc1-n1cnnn1 | 86.8 |
| O=C(OC1CN2CCC1CC2)c1ccc(Cl)cc1 (centres undefined) | 90.3 |
| Nc1nonc1-c1no[n+]([O-])c1-c1nonc1N | 91.7 |
| O=P1(Nc2ccccn2)COc2ccccc2OC1 | 90.7 |
| CC1(C)COP(=S)(N(C2=NCCC2)c2ccccc2)OC1 | 97.1 |
| Cc1cc(C)cc(OP(C)(=O)Nc2ccc(OC(C)C)cc2)c1 (centres undefined) | 83 |

| SMILES | relative growth [%] |
| --- | --- |
| CCSP(=O)(c1ccccc1)c1ccccc1 | 91.5 |
| Cc1nn(CCC#N)c2c1P(=O)(Nc1ccccc1Cl)N(C)C(c1ccc(F)cc1)=N2 (centres undefined) | 93 |
| CP(=O)(N1CCOCC1)N1CCOCC1 | 95.5 |
| Cc1nn(-c2ccccc2)c2c1P(=O)(N1CCOCC1)N(C)C(c1ccccc1)=N2 (centres undefined) | 95 |
| Cc1ccc(C(=O)OC2CN3CCC2CC3)cc1 (centres undefined) | 90.1 |
| Nc1nonc1OCc1nonc1COc1nonc1N | 82.8 |
| CC(=O)OC1(C#N)CN2CCC1CC2 (centres undefined) | -0.94 |
| C=CCN1CCN(CCOC(=O)C(O)(c2ccccc2)c2ccccc2)CC1 | 85.9 |
| Cc1ccccc1NP(C)(=O)Nc1ccccc1C | 83 |
| CC(=O)OC1CN2CCC1C(c1ccccc1)C2 (centres undefined) | 91.5 |
| O=P(Nc1nccs1)(c1ccccc1)c1ccccc1 | 90.9 |
| O=C(OCCN1CCN(CCOCc2ccccc2)CC1)C(O)(c1ccccc1)c1ccccc1 | 111 |
| Cc1cc(NC2=NC3C(C(=O)N(C)C(=O)N3C)N2C)n(-c2ccccc2)n1 (centres undefined) | 89.3 |
| O=P1(Nc2nncs2)C=C(c2ccccc2)SC(c2ccccc2)=C1 | 101 |
| O=P1(Nc2nc3ccc(Cl)cc3s2)COc2ccccc2O1 (centres undefined) | 75.8 |
| CC1CCC(C(C)C)C(OP(=O)(Nc2nccs2)c2ccccc2)C1 (centres undefined) | 79 |
| O=C(OC1CN2CCC1CC2)c1ccccc1 (centres undefined) | 83 |
| COc1cc2c(cc1NP(C)(=O)Oc1ccccc1)oc1ccccc12 (centres undefined) | 25.4 |
| COC(=O)c1cc2c(s1)N=C(c1ccccc1)N(C)P2(=O)N1CCOCC1 (centres undefined) | 93.9 |
| O=C(OCC1CN(Cc2ccccc2)CCO1)C(O)(c1ccccc1)c1ccccc1 (centres undefined) | 86.7 |
| O=C(COC(=O)C(O)(c1ccccc1)c1ccccc1)N1CCCCC1 | 95 |
| CCOP(=Nc1nc2ccccc2n2nnnc12)(OCC)OCC | 88.6 |
| CP(=O)(Nc1ccccn1)Oc1ccccc1 (centres undefined) | 91.2 |
| CCOP(OCC)N1CCOCC1 | 101 |
| CP(=O)(Nc1ccc(Cl)cc1)Oc1ccc(F)cc1 (centres undefined) | 70.8 |
| CCc1ccc(OP(C)(=O)Nc2cccnc2)cc1 (centres undefined) | 93.3 |
| CCc1nc2c(n1)c1c(non1O)c1c2no[n+]1[O-] | 18.5 |
